PubChem BioAssay AID743454 – Peter MacCallum Cancer Centre, 2014
Test: 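Genes whose loss kills vorinostat-resistant colon cancer cells under vorinostat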 (primary screen). System: human HCT116-VR colon cancer cells, selected for vorinostat resistance. Knock-down reagent: siRNA pool against human genes, 40 nM siRNA pool. Time to read-out: vorinostat for 24 h, read-out about 72 h after transfection. Challenge: vorinostat at 2.5 µM final. Measured: 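Two measures, CellTiter-Fluor viability and luminescent caspase 3/7 activity, each as fold change against same-plate mock wells, mean of duplicates, then screen-wide robust z-score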. Scale: viability robust z-score: higher = more viable cells than screen typical; caspase robust z-score: higher = more caspase 3/7 activity than screen typical. Rule for the call: 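a knock-down is a hit when classed RV1 or RV2 for lowered viability, or CA1 or CA2 for caspase activation; those lethal without drug were dropped; hits were retested singly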.
Here is an unselected part of about 18,000 reagents. Over the whole deposit, 450 (2.5%) were called active. 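Single biological run; no consistent viability z cut-off exists, so the class columns, not z-scores, define the calls.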 Reagent sequences are not shown.

gene knocked down | viability hit class | caspase hit class | viability robust z-score | caspase robust z-score | outcome
FLT1 (fms related receptor tyrosine kinase 1) | no change | no change | 2.02 | 1.34 | inactive
TACR1 (tachykinin receptor 1) | no change | no change | -1.37 | -0.23 | inactive
CD7 (CD7 molecule) | no change | no change | 0.22 | -0.06 | inactive
PLPPR3 (phospholipid phosphatase related 3) | no change | no change | 0.39 | -0.52 | inactive
SECISBP2L (SECIS binding protein 2 like) | no change | no change | -0.73 | -0.88 | inactive
MAGEA12 (MAGE family member A12) | no change | no change | 0.18 | 0.19 | inactive
GPS2 (G protein pathway suppressor 2) | no change | no change | 0.49 | 2.06 | inactive
TDRD5 (tudor domain containing 5) | no change | no change | 0.8 | 0.98 | inactive
C1orf115 (chromosome 1 open reading frame 115) | no change | no change | -0.65 | -0.36 | inactive
H2BC13 (H2B clustered histone 13) | no change | no change | 0.82 | 0.72 | inactive
MELTF (melanotransferrin) | no change | no change | 1.05 | 1.82 | inactive
KCNV1 | no change | no change | -0.22 | -0.98 | inactive
CABP7 (calcium binding protein 7) | no change | no change | 0.18 | 0.06 | inactive
CEP57L1 (centrosomal protein 57 like 1) | no change | no change | 0.13 | -0.29 | inactive
FOXG1 (forkhead box G1) | no change | no change | -0.28 | 1.5 | inactive
E2F1 (E2F transcription factor 1) | no change | no change | -0.82 | 2.31 | inactive
SPATA22 (spermatogenesis associated 22) | no change | no change | 0.28 | 1.73 | inactive
ZNF576 (zinc finger protein 576) | no change | no change | -0.2 | 1.35 | inactive
DCUN1D5 (defective in cullin neddylation 1 domain containing 5) | no change | no change | 0.18 | -0.92 | inactive
INTS2 (integrator complex subunit 2) | no change | CA1 (caspase activation) | -0.42 | 6.75 | active
RFX1 (regulatory factor X1) | no change | no change | 1.62 | 0.1 | inactive
MAD2L2 (mitotic arrest deficient 2 like 2) | no change | no change | -0.92 | 0.2 | inactive
PLCXD2 | no change | no change | -0.01 | -0.12 | inactive
HMBS (hydroxymethylbilane synthase) | no change | no change | -0.94 | 0.91 | inactive
DUS2 (dihydrouridine synthase 2) | no change | no change | 0.27 | 3.34 | inactive
WWP1 (WW domain containing E3 ubiquitin protein ligase 1) | no change | no change | -0.81 | -1 | inactive
FBXW2 (F-box and WD repeat domain containing 2) | no change | no change | 0.78 | -0.26 | inactive
ST6GAL2 (ST6 beta-galactoside alpha-2,6-sialyltransferase 2) | no change | no change | 0.45 | -0.35 | inactive
ORC1 (origin recognition complex subunit 1) | no change | no change | -0.31 | 1.88 | inactive
ARMC5 (armadillo repeat containing 5) | no change | no change | 1.8 | 1.89 | inactive
TRIM51EP (tripartite motif-containing 51E, pseudogene) | no change | no change | 0.7 | -0.15 | inactive
GLMP (glycosylated lysosomal membrane protein) | no change | no change | 2.02 | -1.01 | inactive
ZNF595 (zinc finger protein 595) | no change | no change | -0.62 | -0.6 | inactive
RAI1 (retinoic acid induced 1) | no change | no change | 0.21 | -0.83 | inactive
SUPT3H (SPT3 homolog, SAGA and STAGA complex component) | no change | no change | 0.42 | -0.92 | inactive
SCGB1A1 (secretoglobin family 1A member 1) | no change | no change | -0.62 | 2.66 | inactive
RFX7 (regulatory factor X7) | no change | no change | 0.16 | -0.1 | inactive
LRRC17 (leucine rich repeat containing 17) | no change | no change | 1.25 | 0.58 | inactive
EGR3 (early growth response 3) | no change | no change | 0.4 | 0.57 | inactive
DHX35 (DEAH-box helicase 35) | no change | no change | 0.14 | -1.04 | inactive
ANTXR2 (ANTXR cell adhesion molecule 2) | no change | no change | 1.09 | 0.72 | inactive
PLSCR1 (phospholipid scramblase 1) | no change | no change | -0.64 | 4.78 | inactive
PARD6B (par-6 family cell polarity regulator beta) | no change | no change | 0.88 | -0.36 | inactive
ACE (angiotensin I converting enzyme) | no change | no change | 0.2 | 0.15 | inactive
UBE4A (ubiquitination factor E4A) | no change | no change | -1.53 | -0.58 | inactive
TEF (TEF transcription factor, PAR bZIP family member) | no change | no change | 0.96 | -0.24 | inactive
ARHGEF15 (Rho guanine nucleotide exchange factor 15) | no change | no change | -0.57 | 0.26 | inactive
CLDN11 (claudin 11) | no change | no change | 1.16 | -0.16 | inactive
SHROOM3 (shroom family member 3) | no change | no change | 1.54 | 1.05 | inactive
NAA60 (N-alpha-acetyltransferase 60, NatF catalytic subunit) | no change | no change | -0.2 | 3.49 | inactive
RCAN1 (regulator of calcineurin 1) | no change | no change | -2.21 | 2.31 | inactive
RAB27A (RAB27A, member RAS oncogene family) | no change | no change | -0.29 | 1.48 | inactive
SLC5A7 | no change | no change | -0.9 | 0.88 | inactive
ASIC2 (acid sensing ion channel subunit 2) | no change | no change | -1.73 | -0.16 | inactive
UGT3A2 (UDP glycosyltransferase family 3 member A2) | no change | no change | 0.55 | -0.46 | inactive
PAX8 (paired box 8) | no change | no change | -1.04 | 0.24 | inactive
NUP62CL (nucleoporin 62 C-terminal like) | no change | no change | 1.34 | 0.16 | inactive

Entries above whose target name begins with N or n (2):
gene knocked down | viability hit class | caspase hit class | viability robust z-score | caspase robust z-score | outcome
NAA60 (N-alpha-acetyltransferase 60, NatF catalytic subunit) | no change | no change | -0.2 | 3.49 | inactive
NUP62CL (nucleoporin 62 C-terminal like) | no change | no change | 1.34 | 0.16 | inactive
